The other results are listed elsewhere or left out. Most entries show no effect beyond the scatter of the controls.
Compound: Cc1nc(Nc2ncc(C(=O)Nc3c(C)cccc3Cl)s2)cc(N2CCN(CCO)CC2)n1 [dasatinib]
Assay: log2 fold change of tryptic peptide abundance, ligand vs vehicle (limited proteolysis) (log2 ratio); higher = more trypsin-susceptible (destabilized)
Details: ligand concentration: 5 uM; sample: K562 cleared lysate

Sequences of proteins named here, by UniProt entry; tags and fusion partners are left off. A change or cut given only in a name is not applied to a line headed by its entry.
UniProt Q8IY33: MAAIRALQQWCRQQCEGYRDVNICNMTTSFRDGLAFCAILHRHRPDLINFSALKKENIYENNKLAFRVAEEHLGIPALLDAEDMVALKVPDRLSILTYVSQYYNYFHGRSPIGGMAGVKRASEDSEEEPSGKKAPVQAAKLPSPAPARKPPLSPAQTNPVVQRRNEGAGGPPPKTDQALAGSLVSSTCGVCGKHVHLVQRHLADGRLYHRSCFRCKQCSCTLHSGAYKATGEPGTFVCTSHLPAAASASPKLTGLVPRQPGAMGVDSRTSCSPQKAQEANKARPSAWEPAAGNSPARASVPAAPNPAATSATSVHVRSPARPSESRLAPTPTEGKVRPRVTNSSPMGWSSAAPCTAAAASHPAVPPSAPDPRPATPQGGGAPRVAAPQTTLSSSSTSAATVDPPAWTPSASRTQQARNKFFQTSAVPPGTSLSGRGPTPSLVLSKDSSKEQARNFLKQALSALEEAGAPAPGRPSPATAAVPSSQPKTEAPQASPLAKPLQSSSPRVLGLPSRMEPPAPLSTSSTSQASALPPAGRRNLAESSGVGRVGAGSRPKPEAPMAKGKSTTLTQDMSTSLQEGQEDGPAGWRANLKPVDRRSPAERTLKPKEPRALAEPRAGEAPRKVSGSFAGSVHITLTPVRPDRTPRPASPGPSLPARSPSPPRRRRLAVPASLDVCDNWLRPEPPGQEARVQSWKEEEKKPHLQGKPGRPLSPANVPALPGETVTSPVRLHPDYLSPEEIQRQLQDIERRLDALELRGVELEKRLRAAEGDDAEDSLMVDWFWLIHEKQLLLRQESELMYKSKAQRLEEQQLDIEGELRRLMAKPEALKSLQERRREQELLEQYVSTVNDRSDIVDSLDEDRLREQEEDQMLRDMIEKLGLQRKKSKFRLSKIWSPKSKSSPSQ
UniProt Q86X76: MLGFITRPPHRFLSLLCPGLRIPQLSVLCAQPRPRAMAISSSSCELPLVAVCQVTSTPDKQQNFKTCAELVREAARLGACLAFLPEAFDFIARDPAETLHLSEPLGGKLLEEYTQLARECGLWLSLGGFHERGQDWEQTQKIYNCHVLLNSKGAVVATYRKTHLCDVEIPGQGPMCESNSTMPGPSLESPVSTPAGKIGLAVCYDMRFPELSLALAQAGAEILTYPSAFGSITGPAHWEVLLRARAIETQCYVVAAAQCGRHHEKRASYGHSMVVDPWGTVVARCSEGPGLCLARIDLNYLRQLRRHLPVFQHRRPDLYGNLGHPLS
UniProt Q86VN1: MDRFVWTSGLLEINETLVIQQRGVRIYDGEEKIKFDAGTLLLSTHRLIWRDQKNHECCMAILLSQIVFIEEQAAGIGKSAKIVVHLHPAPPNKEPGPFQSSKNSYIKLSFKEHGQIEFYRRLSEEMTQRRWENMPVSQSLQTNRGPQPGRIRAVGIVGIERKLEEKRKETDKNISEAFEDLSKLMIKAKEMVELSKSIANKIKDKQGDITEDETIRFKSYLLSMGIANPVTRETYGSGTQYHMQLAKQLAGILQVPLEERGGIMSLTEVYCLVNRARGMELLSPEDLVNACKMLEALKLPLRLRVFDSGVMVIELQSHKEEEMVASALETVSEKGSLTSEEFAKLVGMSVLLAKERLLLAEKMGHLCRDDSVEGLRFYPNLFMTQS
UniProt Q8IW45: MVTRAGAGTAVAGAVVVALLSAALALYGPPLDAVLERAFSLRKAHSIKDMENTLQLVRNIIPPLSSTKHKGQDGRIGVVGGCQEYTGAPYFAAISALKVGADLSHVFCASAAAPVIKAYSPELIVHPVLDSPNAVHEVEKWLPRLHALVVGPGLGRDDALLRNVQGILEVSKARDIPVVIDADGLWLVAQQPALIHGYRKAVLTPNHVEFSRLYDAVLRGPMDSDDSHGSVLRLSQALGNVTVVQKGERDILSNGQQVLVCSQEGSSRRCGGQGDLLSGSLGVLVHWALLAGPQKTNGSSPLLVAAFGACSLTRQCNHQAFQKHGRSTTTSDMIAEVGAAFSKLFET
UniProt Q8IXQ3: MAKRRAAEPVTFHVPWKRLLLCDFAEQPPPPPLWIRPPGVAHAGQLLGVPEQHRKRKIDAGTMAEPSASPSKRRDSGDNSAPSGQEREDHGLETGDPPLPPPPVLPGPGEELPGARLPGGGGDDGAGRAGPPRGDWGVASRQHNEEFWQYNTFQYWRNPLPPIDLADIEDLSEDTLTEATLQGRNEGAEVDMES
UniProt Q8IZ26: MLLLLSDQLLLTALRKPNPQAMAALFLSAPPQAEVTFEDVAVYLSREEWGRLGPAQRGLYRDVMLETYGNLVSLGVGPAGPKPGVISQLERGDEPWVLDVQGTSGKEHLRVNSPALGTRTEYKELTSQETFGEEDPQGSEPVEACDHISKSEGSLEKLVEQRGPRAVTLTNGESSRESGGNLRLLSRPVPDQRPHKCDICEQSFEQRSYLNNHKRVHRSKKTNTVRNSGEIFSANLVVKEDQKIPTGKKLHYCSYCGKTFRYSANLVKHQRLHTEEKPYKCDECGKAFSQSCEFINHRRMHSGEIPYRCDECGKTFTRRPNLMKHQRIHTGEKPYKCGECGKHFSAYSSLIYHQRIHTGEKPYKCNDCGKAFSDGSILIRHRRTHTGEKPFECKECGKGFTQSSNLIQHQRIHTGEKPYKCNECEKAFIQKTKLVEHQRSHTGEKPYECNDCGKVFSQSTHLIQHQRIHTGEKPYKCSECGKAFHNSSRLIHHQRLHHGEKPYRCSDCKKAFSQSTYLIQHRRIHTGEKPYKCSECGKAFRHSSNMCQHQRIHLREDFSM
UniProt Q8IUI8: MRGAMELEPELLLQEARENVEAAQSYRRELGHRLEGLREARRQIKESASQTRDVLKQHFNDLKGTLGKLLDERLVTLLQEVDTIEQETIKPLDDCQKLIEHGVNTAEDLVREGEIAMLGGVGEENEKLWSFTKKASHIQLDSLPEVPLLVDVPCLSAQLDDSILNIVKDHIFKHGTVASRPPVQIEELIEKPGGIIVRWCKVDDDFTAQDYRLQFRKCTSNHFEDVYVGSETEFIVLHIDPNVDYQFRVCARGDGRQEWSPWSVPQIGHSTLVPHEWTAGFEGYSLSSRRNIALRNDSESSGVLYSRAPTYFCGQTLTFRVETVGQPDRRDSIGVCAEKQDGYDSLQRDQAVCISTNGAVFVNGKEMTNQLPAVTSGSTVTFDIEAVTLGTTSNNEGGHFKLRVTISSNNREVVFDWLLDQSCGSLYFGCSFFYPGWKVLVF
UniProt Q8IZ21: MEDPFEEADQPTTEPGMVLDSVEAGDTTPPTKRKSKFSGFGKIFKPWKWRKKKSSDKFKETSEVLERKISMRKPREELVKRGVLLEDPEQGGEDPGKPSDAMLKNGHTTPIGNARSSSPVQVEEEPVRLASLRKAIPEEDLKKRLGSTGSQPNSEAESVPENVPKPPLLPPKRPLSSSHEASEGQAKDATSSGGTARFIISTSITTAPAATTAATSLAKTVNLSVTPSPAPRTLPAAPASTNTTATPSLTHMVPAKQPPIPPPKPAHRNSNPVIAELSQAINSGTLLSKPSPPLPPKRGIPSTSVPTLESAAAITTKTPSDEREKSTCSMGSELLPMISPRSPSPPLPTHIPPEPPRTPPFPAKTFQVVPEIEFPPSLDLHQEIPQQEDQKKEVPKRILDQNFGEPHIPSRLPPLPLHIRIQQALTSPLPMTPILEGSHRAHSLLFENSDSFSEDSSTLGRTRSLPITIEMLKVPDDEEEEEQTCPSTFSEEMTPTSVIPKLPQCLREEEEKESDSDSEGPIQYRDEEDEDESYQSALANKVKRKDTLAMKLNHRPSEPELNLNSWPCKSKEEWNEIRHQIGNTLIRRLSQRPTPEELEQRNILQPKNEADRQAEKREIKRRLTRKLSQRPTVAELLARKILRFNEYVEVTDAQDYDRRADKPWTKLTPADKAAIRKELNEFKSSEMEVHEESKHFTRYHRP
UniProt Q8IYB8: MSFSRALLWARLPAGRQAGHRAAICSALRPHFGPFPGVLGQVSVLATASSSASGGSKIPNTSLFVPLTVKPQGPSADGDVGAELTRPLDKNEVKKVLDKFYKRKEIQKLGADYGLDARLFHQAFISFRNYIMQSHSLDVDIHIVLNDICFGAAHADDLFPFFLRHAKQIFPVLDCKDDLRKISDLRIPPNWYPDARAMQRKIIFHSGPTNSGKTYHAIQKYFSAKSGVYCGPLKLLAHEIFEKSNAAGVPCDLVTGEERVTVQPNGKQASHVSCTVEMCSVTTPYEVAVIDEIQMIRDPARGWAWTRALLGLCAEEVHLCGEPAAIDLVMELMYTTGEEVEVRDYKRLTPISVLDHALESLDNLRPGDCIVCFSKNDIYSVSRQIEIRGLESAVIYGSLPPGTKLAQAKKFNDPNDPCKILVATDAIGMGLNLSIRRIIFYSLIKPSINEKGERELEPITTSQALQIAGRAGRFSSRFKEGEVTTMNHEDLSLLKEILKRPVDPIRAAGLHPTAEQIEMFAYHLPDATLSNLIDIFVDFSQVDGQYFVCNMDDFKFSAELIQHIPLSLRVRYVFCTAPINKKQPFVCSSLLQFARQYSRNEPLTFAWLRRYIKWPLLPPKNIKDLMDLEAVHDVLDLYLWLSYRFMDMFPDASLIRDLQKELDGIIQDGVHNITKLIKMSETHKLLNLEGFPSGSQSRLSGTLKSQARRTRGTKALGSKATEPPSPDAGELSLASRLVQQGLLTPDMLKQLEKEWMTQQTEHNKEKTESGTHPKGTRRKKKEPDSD
UniProt Q8IVP9: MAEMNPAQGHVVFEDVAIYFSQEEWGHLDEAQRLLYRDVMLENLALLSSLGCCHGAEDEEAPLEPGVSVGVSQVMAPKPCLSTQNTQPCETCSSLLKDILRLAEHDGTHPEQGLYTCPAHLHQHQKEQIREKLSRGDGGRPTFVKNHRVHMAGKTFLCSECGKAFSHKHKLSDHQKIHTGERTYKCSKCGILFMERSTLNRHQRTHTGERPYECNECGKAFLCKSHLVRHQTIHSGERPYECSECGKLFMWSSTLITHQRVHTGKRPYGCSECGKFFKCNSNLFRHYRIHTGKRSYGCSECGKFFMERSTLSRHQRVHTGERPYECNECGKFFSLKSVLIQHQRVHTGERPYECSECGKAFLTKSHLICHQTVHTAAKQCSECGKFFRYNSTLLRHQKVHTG

| Target | log2 fold change |
| --- | --- |
| MICALL2 (peptide sequence: EQEEDQMLR, peptide start residue: 865) (UniProt Q8IY33) | -0.179 |
| NIT1 (peptide sequence: RPDLYGNLGHPLS, peptide start residue: 315) (UniProt Q86X76) | 0.21 |
| VPS36 (peptide sequence: RWENMPVSQSLQTNR, peptide start residue: 130) (UniProt Q86VN1) | -0.181 |
| UniProt Q8IW45 (peptide sequence: LHALVVGPGLGRDDALLR, peptide start residue: 145) | -0.249 |
| C9orf40 (peptide sequence: AAEPVTFHVPWKR, peptide start residue: 6) (UniProt Q8IXQ3) | -0.334 |
| UniProt Q8IZ26 (peptide sequence: AVTLTNGESSR, peptide start residue: 166) | -0.0576 |
| CRLF3 (peptide sequence: ENVEAAQSYRR, peptide start residue: 18) (UniProt Q8IUI8) | 0.217 |
| PHACTR4 (peptide sequence: ILDQNFGEPHIPSRLPPLPLHIR, peptide start residue: 398) (UniProt Q8IZ21) | 0.547 |
| SUPV3L1 (peptide sequence: EWMTQQTEHNK, peptide start residue: 754) (UniProt Q8IYB8) | -0.511 |
| UniProt Q8IVP9 (peptide sequence: VHTGERPYECNECGK, peptide start residue: 471) | 0.0161 |

Exported with tabs: part of the list above.
Target	log2 fold change
UniProt Q8IZ26 (peptide sequence: AVTLTNGESSR, peptide start residue: 166)	-0.0576
PHACTR4 (peptide sequence: ILDQNFGEPHIPSRLPPLPLHIR, peptide start residue: 398) (UniProt Q8IZ21)	0.547
